The test has as its target endogenous TTLL12 (RPE1 cells) (human (endogenous in RPE1)) (UniProt Q14166). Nature of the test: co-IP; TTLL12 immunoprecipitated from wild-type or TTLL12 KO RPE1 cells with an anti-TTLL12 antibody; immunoblot for αTAT1. (In western blotting, separated proteins are transferred to a membrane and probed.)

Amino acid sequences for entries named in this document (tags omitted).
UniProt Q14166: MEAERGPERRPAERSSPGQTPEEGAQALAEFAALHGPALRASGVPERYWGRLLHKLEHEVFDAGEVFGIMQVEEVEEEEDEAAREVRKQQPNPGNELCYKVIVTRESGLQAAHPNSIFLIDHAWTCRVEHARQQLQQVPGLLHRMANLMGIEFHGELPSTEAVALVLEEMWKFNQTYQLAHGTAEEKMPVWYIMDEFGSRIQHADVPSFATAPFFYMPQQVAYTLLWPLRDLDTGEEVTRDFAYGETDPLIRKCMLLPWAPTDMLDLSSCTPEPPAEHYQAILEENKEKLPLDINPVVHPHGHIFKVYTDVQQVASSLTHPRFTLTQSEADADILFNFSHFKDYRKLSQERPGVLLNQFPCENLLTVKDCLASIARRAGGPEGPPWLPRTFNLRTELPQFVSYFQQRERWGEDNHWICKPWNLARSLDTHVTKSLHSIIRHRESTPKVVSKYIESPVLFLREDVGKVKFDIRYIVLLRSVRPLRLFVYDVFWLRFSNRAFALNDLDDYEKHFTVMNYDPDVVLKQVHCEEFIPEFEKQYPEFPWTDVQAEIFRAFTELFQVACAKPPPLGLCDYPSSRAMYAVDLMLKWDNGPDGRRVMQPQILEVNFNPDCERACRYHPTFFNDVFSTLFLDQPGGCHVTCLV
UniProt Q5SQI0: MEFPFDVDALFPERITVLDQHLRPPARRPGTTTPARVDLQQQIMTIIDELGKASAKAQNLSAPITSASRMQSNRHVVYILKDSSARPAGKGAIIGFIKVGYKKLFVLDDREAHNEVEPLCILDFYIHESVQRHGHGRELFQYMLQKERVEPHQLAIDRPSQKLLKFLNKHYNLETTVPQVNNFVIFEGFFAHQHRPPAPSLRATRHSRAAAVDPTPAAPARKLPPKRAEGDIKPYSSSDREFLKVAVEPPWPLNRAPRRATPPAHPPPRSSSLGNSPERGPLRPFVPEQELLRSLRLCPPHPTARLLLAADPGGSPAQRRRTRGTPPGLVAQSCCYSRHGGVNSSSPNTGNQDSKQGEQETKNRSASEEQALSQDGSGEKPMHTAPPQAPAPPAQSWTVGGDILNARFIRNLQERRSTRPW

Results are given in words; binding and its absence hold for the method and conditions named. Binding seen in cells or lysates may run through a third protein.

For “endogenous αTAT1 (RPE1 cells) (from UniProt Q5SQI0 1-421) (enzyme)”, the binding entry is listed as “no binding”.

The record behind these values is paper PMC10883266, “TTLL12 is required for primary ciliary axoneme formation in polarized epithelial cells” (EMBO Reports, 2023).
